# From the supplement of paper PMC12067093, “Discovery and optimisation of a covalent ligand for TRIM25 and its application to targeted protein ubiquitination” (Chemical Science, 2025)
# The chains behind the UniProt entries cited, without tags or fusion partners. Where a name states a change or a piece, a line headed by the entry shows the natural chain unless it says otherwise.
# UniProt Q76FK4: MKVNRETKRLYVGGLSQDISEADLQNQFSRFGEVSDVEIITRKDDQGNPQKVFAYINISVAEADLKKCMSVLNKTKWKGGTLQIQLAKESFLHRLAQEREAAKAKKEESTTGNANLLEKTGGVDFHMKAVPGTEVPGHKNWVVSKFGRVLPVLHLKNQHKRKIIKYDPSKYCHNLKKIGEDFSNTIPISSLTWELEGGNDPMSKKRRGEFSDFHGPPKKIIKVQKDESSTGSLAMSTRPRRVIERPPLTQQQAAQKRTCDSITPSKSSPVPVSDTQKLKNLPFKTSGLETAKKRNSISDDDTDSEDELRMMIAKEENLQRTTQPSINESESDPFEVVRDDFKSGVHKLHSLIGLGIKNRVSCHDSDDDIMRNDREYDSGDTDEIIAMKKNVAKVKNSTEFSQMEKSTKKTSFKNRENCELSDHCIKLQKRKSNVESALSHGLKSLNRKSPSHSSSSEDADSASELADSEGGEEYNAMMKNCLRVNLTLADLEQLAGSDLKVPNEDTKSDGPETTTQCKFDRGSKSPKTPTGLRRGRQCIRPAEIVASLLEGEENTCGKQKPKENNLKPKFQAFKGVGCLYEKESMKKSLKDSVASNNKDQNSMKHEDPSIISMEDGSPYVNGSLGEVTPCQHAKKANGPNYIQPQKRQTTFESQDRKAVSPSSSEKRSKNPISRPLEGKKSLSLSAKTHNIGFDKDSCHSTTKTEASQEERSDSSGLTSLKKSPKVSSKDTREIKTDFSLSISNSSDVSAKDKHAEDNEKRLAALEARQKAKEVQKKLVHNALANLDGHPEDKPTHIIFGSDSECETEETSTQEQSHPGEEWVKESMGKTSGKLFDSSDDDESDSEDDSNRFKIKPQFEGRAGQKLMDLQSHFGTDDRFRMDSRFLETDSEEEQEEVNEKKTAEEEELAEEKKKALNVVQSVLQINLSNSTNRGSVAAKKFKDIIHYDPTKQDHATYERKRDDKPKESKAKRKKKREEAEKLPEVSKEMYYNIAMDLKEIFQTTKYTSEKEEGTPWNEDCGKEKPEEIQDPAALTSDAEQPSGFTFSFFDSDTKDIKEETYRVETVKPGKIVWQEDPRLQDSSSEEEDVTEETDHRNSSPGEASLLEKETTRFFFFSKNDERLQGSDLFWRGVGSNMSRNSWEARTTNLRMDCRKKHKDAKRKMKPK
# UniProt Q86UT6, whole entry, looked up: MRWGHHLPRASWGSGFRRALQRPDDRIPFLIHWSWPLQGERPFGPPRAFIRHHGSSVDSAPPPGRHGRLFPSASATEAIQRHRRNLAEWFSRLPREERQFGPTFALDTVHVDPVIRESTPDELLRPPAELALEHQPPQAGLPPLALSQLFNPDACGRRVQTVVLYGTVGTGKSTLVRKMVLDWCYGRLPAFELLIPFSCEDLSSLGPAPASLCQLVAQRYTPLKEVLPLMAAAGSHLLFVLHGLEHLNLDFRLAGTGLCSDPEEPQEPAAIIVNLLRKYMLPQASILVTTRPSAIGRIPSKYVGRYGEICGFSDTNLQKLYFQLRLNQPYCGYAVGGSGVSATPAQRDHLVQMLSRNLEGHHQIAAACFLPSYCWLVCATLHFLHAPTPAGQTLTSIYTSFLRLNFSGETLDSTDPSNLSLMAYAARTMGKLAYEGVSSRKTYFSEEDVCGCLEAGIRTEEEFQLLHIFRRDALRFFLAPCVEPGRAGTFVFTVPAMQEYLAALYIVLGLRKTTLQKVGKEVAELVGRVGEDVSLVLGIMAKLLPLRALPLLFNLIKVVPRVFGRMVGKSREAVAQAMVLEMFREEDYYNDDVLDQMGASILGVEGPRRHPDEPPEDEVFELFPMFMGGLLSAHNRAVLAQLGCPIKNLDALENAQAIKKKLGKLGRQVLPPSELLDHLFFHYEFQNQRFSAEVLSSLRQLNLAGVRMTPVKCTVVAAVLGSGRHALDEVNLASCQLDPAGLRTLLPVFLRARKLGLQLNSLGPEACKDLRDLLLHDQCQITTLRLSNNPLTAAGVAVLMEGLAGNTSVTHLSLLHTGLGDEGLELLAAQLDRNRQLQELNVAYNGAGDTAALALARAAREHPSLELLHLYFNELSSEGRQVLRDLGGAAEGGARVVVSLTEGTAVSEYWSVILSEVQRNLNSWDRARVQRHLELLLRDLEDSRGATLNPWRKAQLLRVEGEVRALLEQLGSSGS
# UniProt Q9Y2X3: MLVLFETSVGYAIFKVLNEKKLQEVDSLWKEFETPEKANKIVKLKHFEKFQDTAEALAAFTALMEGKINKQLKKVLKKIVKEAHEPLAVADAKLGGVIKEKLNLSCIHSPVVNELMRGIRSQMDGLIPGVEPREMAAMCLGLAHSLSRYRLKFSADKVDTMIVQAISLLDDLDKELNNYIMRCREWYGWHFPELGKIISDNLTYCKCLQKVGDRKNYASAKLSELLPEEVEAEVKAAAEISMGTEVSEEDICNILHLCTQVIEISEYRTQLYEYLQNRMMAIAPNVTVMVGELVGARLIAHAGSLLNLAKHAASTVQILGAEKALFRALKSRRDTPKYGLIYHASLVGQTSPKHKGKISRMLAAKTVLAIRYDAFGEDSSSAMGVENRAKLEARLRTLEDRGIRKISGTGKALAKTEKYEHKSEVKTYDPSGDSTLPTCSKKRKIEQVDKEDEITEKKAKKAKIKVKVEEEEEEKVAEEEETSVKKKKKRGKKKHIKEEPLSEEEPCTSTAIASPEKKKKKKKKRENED
# UniProt Q86U38: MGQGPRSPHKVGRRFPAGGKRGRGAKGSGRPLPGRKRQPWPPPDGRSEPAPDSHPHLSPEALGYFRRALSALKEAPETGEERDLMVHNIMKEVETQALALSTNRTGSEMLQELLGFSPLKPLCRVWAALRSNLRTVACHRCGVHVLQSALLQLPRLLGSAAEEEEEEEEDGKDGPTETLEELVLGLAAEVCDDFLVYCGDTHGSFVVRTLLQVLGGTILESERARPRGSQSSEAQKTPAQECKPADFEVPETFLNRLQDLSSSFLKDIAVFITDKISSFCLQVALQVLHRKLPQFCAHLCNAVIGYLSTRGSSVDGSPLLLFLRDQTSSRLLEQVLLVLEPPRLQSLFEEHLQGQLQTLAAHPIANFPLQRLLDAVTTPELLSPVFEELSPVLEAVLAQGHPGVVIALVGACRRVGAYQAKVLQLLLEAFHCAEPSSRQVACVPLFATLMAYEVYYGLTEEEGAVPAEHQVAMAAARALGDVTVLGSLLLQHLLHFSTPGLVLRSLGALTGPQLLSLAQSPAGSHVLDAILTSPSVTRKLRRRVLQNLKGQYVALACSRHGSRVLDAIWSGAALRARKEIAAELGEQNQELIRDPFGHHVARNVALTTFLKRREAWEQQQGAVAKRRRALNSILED
# UniProt Q9BV86: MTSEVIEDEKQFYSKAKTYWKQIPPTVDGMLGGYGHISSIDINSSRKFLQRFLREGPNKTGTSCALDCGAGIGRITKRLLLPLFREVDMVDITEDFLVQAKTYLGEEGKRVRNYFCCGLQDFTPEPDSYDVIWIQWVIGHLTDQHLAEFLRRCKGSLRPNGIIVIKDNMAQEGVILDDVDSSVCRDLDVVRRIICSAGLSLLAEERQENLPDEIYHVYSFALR
# UniProt O43847: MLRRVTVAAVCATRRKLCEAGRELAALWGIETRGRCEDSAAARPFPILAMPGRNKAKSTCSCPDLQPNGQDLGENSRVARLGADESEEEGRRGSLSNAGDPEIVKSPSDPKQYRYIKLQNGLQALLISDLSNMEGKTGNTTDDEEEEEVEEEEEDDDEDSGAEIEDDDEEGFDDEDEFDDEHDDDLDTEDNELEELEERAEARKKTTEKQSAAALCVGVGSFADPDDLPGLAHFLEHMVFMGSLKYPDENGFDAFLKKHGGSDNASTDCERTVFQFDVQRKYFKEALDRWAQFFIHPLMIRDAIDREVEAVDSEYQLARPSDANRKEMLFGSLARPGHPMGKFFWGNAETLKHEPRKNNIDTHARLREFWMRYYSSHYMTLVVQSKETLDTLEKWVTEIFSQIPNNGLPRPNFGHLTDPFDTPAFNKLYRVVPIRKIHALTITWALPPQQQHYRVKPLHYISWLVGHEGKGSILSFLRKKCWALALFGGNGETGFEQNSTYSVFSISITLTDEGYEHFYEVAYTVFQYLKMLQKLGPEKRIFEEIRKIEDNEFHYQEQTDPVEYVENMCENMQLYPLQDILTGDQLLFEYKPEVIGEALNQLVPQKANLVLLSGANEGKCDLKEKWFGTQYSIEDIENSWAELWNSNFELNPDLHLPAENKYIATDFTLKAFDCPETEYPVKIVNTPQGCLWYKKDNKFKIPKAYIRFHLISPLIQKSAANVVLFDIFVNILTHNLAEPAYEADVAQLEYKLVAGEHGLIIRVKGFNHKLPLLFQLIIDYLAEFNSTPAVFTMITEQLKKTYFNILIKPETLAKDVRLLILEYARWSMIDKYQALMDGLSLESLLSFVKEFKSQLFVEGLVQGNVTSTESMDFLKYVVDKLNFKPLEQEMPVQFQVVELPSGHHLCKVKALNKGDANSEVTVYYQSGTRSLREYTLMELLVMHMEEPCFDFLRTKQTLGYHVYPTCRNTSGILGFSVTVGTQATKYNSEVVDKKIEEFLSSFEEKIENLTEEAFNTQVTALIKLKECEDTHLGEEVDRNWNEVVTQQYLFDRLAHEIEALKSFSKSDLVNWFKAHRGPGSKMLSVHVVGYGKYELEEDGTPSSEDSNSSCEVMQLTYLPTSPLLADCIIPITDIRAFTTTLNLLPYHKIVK
# UniProt Q8TAT6: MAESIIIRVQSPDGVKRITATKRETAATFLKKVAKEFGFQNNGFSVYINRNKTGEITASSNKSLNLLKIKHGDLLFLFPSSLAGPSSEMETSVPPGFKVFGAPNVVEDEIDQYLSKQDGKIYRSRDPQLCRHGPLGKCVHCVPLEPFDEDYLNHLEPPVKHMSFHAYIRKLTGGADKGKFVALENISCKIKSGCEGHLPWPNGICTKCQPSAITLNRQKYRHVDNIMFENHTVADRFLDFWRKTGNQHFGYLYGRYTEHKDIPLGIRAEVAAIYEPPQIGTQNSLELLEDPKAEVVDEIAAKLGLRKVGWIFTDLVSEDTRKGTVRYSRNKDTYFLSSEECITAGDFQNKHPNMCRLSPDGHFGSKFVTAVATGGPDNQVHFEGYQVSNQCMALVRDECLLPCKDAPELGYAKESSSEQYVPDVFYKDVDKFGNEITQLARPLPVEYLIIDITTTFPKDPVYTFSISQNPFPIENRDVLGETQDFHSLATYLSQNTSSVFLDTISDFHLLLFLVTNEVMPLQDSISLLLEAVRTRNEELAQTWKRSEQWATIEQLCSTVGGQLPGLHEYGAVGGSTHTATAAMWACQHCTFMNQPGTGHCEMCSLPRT
# UniProt Q15738: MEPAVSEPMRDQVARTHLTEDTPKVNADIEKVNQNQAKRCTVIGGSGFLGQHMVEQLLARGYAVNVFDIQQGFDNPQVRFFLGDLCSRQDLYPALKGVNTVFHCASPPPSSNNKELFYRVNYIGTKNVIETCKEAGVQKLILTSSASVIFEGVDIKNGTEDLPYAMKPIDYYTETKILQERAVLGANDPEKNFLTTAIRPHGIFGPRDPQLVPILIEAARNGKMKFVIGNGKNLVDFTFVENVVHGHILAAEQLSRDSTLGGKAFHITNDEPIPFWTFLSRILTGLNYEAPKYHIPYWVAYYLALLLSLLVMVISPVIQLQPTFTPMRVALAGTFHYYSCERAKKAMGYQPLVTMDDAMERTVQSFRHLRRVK
# UniProt Q8TCD5: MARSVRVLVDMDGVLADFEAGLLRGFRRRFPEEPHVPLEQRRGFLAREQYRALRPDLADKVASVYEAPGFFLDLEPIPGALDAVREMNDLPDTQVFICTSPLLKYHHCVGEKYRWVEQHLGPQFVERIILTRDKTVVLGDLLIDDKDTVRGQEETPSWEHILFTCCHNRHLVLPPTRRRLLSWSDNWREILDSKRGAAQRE
# UniProt Q86WQ0: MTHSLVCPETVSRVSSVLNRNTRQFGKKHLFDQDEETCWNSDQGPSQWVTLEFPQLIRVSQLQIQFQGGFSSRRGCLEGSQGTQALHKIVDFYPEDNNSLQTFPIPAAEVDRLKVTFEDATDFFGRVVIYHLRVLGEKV
# UniProt O00567: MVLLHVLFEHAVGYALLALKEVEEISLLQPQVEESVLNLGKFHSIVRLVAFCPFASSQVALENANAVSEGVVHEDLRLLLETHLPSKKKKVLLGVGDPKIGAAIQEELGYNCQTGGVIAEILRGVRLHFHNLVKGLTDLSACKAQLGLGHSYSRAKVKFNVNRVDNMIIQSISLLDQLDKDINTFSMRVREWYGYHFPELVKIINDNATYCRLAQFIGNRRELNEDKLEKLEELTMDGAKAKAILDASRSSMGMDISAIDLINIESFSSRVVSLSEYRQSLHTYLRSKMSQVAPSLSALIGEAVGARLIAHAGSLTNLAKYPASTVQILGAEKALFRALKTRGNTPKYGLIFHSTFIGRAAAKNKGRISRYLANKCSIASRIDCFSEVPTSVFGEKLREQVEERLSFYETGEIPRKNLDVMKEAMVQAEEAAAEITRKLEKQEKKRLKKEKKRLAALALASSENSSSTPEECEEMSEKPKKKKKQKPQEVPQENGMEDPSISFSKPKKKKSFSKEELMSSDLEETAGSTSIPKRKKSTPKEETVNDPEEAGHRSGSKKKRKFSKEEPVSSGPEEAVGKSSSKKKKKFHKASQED
# Some of the results follow.
# Compound: Cc1cc(ccc1-c1ccccc1)C(=O)N1CCCN(CC1)C(=O)CCl [compound 10]
# Assay: probe-labelled cysteine peptide fold change vs DMSO (competition) (log2 fold change); higher = less target engagement (more negative = stronger competition)
# Details: 50 µM; THP-1; incubation time: 4 h
# 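Further: competitive profiling in live THP-1 cells: cysteine peptides tagged with an iodoacetamide desthiobiotin (IA-DTB) probe, intensity after compound treatment relative to DMSO-treated cells.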
row,Target,probe-labelled cysteine peptide fold change
1,NOL8_Q76FK4_517_SDGPETTTQCK (UniProt Q76FK4),-0.194
2,NT5C3A_Q9H0P0_73_IKNPTRVEEIICGLIK (UniProt Q9H0P0),-0.646
3,NLRX1_Q86UT6_779_DLRDLLLHDQCQITTLR (UniProt Q86UT6),-0.121
4,NMD3_Q96D46_214+218_MVEFLQCTVPCR (UniProt Q96D46),-0.277
5,NLE1_Q9NVX2_216_WITGLSWEPLHANPECR (UniProt Q9NVX2),0.2
6,NOL6_Q9H6R4_486_LQAACHR (UniProt Q9H6R4),0.135
7,NMI_Q13287_230_EYPLYINQTCHR (UniProt Q13287),0.0847
8,NOP58_Q9Y2X3_139_EMAAMCLGLAHSLSR (UniProt Q9Y2X3),-0.0164
9,NOMO2_Q5JPE7_411_IAPNTPQLADIVATGFSVCGR (UniProt Q5JPE7),-0.138
10,NLRP7_Q8WX94_540_ELEATFGCR (UniProt Q8WX94),-0.135
11,NOP9_Q86U38_123_TGSEMLQELLGFSPLKPLCR (UniProt Q86U38),-0.618
12,NOC4L_Q9BVI4_100_YHSCCNR (UniProt Q9BVI4),0.037
13,NSMAF_Q92636_803_EGTVNIWDLTTATLMHQIPCHSGIVCDTAFSPDSR (UniProt Q92636),-0.0111
14,NR2F6_P10588_316_AIALFTPDACGLSDPAHVESLQEK (UniProt P10588),-1.1
15,NOTCH1_P46531_2140_SPQLHGAPLGGTPTLSPPLCSPNGYLGSLKPGVQGK (UniProt P46531),-0.771
16,NOP58_Q9Y2X3_106_LNLSCIHSPVVNELMR (UniProt Q9Y2X3),0.0532
17,NLRX1_Q86UT6_644_AVLAQLGCPIK (UniProt Q86UT6),-0.075
18,NTMT1_Q9BV86_68_TGTSCALDCGAGIGR (UniProt Q9BV86),-0.00422
19,NOL7_Q9UMY1_149_KNEDCEK (UniProt Q9UMY1),-0.0639

row,Target,probe-labelled cysteine peptide fold change
1,NMNAT3_Q96T66_134_LLCGADVLK (UniProt Q96T66),0.37
2,NRDC_O43847_1027_LKECEDTHLGEEVDRNWNEVVTQQYLFDR (UniProt O43847),-0.499
3,NPLOC4_Q8TAT6_188_FVALENISCK (UniProt Q8TAT6),-0.121
4,NT5C2_P49902_433_VTHDMDMCYGMMGSLFR (UniProt P49902),-0.038
5,NSDHL_Q15738_86_FFLGDLCSR (UniProt Q15738),0.0788
6,NOL8_Q76FK4_556_QCIRPAEIVASLLEGEENTCGK (UniProt Q76FK4),-0.418
7,NT5C_Q8TCD5_166_GQEETPSWEHILFTCCHNR (UniProt Q8TCD5),-0.119
8,NRDC_O43847_690_IVNTPQGCLWYKK (UniProt O43847),-0.413
9,NSF_P46459_91_QCIGTMTIEIDFLQK (UniProt P46459),0.455
10,NOTCH2_Q04721_364_VASFSCMCPEGK (UniProt Q04721),-0.066
11,NR2C2AP_Q86WQ0_7_THSLVCPETVSR (UniProt Q86WQ0),-0.0397
12,NOP9_Q86U38_141_CGVHVLQSALLQLPR (UniProt Q86U38),0.629
13,NSDHL_Q15738_40_CTVIGGSGFLGQHMVEQLLAR (UniProt Q15738),0.178
14,NSUN2_Q08J23_502_KDGVCGPPPSKK (UniProt Q08J23),-0.6
15,NPLOC4_Q8TAT6_130_SRDPQLCR (UniProt Q8TAT6),-0.0288
16,NOL6_Q9H6R4_633_LIPHQVVTHLLALHADIPETCVHYVGGPLDALIQGLK (UniProt Q9H6R4),0.299
17,NOP56_O00567_211_IINDNATYCR (UniProt O00567),0.322
18,NPC2_P61916_27_DCGSVDGVIK (UniProt P61916),0.119
19,NLRC5_Q86WI3_1671_RLEELMLGCNALGDPTALGLAQELPQHLR (UniProt Q86WI3),-0.138
